These are yes or no findings as the source states them, for the method shown. In cells and extracts the contact can be indirect. Some results given as binding are weak or reduced against the parent protein; the word gives no strength.

The chains behind the UniProt entries cited, without tags or fusion partners.
UniProt Q13263: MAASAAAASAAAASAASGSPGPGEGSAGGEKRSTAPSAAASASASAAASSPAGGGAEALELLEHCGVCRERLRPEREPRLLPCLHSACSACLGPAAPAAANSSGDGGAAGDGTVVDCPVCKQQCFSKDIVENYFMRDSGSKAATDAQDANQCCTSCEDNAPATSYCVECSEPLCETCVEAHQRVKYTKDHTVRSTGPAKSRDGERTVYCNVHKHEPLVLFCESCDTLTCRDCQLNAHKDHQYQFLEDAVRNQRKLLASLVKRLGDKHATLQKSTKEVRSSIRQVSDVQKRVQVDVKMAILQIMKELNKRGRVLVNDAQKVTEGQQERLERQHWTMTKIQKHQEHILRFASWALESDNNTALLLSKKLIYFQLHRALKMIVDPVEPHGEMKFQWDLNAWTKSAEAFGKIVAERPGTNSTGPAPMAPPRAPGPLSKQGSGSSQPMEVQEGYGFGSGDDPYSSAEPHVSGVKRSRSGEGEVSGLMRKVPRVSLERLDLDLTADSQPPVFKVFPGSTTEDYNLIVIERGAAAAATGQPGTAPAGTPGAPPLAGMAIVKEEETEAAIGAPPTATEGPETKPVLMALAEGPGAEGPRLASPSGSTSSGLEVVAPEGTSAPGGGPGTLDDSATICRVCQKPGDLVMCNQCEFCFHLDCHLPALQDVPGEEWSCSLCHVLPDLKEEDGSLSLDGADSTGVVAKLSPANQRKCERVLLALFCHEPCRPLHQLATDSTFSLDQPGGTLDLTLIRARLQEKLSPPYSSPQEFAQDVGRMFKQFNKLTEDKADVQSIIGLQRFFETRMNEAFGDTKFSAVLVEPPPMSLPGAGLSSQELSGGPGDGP

The target in assay [1] is T1, MAGEC2 (human (endogenous in A375 and Hs 695 T)) (UniProt Q9UBF1).
T1 sequence: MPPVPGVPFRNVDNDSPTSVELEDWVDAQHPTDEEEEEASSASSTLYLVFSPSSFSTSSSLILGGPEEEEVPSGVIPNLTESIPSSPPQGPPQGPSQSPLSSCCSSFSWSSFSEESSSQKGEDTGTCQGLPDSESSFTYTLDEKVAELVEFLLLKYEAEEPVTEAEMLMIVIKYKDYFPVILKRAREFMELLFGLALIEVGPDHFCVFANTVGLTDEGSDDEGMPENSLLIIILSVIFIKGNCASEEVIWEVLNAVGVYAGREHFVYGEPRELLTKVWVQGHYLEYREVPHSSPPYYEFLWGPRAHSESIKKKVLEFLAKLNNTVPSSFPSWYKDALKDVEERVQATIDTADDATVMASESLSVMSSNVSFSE
Description: co-IP; endogenous proteins, A375 cells (1 x 10^8) lysed in IP buffer (50 mM Tris-HCl pH 7.5, 150 mM NaCl, 1 mM EDTA, 0.5% NP-40); IP with anti-MAGEC2 or anti-TRIM28 antibody and protein A-Sepharose, mIgG as negative control; immunoblot. Background: A western blot detects proteins with antibodies after separation by electrophoresis.

Assay [2] addresses TRIM28 (human (endogenous in A375 and Hs 695 T)) (UniProt Q13263). Description: co-IP; endogenous proteins, Hs 695 T cells (1 x 10^8) lysed in IP buffer (50 mM Tris-HCl pH 7.5, 150 mM NaCl, 1 mM EDTA, 0.5% NP-40); IP with anti-TRIM28 antibody and protein A-Sepharose, mIgG as negative control; immunoblot.
The target is the same in assay [3]. Description: co-IP; endogenous proteins, A375 cells (1 x 10^8) lysed in IP buffer (50 mM Tris-HCl pH 7.5, 150 mM NaCl, 1 mM EDTA, 0.5% NP-40); IP with anti-MAGEC2 or anti-TRIM28 antibody and protein A-Sepharose, mIgG as negative control; immunoblot.

For the molecule TRIM28 (from UniProt Q13263 1-835), the binding result in assay [1] is listed as “binds”.

B1: MAGEC2 (protein, UniProt Q9UBF1 1-373)
chain: T1 sequence
With B1, the binding result in assay [2] and in assay [3] was “binds” each time.

For the origin of these results see paper PMC6182782.
